Measurements published in US6117840A, “CS-1 peptidomimetics, compositions and methods of using the same” (Cytel Corporation, priority 1997, dated 2000).
Part of at least one peptide drawing is inferred or uncertain, most often the ends.

Test system: BALB/c mice
Test: Adoptive transfer delayed type hypersensitivity in mice (oxazolone)
Type: in vivo, mouse
Conditions: 6 mg/kg/day s.c. pump for 24 hours
Description: An adoptive transfer delayedtype hypersensitivity murine model has been developed using splenic T cells primed to oxazolone. This model is described in Elices et al., Clin. Exp. Rheum., 11(Suppl. 8):577-580 (1993), whose procedures were followed here.
Thus, BALB/c mice were shaved on the belly and painted (50 μl on the belly and 5 μl on each paw) with three percent oxazolone in acetone/olive oil (4:1) at days zero and 1. At day 5, the mice were sacrificed, their spleens removed, and splenic T cells were obtained via nylon wool columns.
Normal saline or saline containing 25×10^6 /animal of the oxazoloneimmune T cells were separately injected into naive mice. The mic were then challenged by painting 10 μl of 2 percent oxazolone onto one ear each. All procedures were carried out under sterile conditions and in endotoxingfree buffers.
Prior to challenge or saline injection, the mice were implanted with pumps that subcutaneously administered normal saline, normal saline containing the peptide N--phenylacetyl--Leu--Asp--Phe--D--Pro--NH2 or normal saline containing a peptide with a scrambled sequence continually at 6 mg/kg/day for a 24-hour time period. The swelling diameter at the site of challenge or saline injection was measured with a microcaliper 24 hours thereafter. […]

CC(C)C[C@@H](C(=O)N[C@@H](CC(=O)O)C(=O)N[C@H](C(=O)N1CCC[C@@H]1C(N)=O)C(C)C)N1C(=O)c2ccccc2C1=O [X L D V p phthalimido amide, Phth--Leu--Asp--Val--D--Pro--NH2]
swelling at challenge site (in words): slightly higher than that exhibited by vehicle alone
